Measured values published in US20050100554A1.
These are yes or no findings as the source states them, for the method shown. Some results given as binding are weak or reduced against the parent protein; the word gives no strength.

By UniProt entry, the sequences of proteins in these tests, tags left out. Where a name states a change or a piece, a line headed by the entry shows the natural chain unless it says otherwise. Residues count along the entry.
UniProt Q6NV74: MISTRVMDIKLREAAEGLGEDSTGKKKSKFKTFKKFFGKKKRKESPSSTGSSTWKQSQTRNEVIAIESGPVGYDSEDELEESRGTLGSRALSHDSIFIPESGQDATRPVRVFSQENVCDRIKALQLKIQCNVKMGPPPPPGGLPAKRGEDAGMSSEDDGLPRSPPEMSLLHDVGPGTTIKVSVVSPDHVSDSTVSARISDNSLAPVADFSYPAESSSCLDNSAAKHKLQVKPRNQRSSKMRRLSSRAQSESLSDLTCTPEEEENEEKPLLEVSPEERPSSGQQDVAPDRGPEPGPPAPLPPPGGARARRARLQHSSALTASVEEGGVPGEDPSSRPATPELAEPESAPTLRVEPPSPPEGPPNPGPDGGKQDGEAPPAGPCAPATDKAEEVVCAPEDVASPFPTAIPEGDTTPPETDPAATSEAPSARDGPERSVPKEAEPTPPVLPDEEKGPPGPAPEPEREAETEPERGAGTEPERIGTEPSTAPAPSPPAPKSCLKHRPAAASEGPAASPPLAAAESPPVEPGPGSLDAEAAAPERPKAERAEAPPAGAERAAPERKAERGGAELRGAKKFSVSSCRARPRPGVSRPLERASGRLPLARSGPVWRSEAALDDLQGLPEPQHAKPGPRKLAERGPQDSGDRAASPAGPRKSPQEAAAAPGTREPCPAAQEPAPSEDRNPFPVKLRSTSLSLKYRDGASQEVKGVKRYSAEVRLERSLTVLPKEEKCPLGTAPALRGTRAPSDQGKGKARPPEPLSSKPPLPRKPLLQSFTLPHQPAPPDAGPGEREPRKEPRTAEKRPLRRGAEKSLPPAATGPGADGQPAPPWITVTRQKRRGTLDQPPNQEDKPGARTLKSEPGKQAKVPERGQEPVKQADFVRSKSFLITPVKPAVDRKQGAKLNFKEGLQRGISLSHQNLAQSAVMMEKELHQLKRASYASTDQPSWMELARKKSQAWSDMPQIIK
UniProt Q9UBU8: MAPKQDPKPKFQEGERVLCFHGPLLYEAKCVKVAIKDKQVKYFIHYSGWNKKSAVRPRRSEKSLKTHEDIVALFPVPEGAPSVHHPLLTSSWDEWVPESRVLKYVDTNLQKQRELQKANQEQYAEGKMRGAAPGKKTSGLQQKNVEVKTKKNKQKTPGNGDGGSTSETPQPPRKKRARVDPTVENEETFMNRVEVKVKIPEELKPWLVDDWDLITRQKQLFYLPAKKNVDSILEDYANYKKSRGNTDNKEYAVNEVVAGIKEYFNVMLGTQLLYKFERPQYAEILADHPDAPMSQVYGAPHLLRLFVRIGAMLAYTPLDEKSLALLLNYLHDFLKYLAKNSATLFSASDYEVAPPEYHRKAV
UniProt Q15582: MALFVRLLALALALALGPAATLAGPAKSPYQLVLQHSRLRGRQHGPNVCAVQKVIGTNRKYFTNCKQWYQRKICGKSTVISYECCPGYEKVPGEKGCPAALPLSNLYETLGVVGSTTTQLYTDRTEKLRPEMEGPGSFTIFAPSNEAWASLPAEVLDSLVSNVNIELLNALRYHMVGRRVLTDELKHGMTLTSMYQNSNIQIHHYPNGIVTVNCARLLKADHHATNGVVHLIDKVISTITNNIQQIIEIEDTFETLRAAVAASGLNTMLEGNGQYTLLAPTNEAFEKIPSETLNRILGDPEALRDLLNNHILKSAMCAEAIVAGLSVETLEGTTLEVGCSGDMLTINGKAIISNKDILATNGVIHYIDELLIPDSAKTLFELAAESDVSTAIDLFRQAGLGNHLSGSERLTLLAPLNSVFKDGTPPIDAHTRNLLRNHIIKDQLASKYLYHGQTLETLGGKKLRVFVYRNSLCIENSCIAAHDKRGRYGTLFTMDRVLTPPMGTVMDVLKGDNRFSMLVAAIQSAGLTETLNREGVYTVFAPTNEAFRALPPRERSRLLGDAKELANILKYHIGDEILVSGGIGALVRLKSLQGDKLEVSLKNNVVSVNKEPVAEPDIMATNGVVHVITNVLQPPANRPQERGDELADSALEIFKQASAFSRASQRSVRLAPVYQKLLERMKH
UniProt P17987: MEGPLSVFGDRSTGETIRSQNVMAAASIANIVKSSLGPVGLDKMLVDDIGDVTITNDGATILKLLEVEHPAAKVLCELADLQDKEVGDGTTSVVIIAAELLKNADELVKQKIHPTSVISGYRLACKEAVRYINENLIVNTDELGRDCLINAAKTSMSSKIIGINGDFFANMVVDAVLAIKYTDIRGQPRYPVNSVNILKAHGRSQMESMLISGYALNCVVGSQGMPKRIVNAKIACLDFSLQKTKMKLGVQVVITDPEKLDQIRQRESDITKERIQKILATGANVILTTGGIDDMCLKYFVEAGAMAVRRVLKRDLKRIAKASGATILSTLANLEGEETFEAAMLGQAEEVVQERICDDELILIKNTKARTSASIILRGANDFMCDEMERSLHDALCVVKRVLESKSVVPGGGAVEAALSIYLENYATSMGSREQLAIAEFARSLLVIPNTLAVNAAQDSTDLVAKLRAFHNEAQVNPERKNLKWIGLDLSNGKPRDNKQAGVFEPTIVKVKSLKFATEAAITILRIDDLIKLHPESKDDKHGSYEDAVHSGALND
UniProt Q9UK28, residues 25-342: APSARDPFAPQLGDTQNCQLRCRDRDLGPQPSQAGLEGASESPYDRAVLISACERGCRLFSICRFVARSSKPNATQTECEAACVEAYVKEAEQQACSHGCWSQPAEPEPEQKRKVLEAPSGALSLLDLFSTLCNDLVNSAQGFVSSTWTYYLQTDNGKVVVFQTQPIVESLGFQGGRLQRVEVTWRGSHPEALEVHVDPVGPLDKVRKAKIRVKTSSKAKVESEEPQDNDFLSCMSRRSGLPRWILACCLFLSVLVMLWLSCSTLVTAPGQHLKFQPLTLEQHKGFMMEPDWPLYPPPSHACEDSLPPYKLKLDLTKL
UniProt Q16854: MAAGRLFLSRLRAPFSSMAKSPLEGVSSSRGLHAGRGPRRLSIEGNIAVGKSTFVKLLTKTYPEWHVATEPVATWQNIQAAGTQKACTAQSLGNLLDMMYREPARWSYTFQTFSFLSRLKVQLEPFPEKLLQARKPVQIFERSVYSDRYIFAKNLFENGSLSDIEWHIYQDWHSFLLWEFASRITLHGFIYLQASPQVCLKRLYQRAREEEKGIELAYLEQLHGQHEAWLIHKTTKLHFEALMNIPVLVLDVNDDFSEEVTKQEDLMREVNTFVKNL

What was measured:
[1] = molecular target: T1, LOC51182 (human) (UniProt Q0VDF9); experiment: Y2H; INT ID 586
T1 sequence: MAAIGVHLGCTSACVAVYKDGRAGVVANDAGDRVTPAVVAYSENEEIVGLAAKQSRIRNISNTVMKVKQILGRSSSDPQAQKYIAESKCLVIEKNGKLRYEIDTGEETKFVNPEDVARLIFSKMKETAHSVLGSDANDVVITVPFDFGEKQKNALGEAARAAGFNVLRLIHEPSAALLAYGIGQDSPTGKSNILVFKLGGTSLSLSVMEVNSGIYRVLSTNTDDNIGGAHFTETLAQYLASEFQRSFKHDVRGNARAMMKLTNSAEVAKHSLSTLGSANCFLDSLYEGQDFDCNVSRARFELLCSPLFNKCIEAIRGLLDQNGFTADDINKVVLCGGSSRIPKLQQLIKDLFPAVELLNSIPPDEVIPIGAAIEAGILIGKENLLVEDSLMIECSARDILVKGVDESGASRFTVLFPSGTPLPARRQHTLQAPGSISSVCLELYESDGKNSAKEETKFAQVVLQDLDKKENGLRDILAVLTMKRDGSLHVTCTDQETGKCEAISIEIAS

[2] = molecular target: Prey1628 (Homo sapiens (Human)) (UniProt Q6NV74); experiment: Y2H; INT ID 163
[3] = molecular target: T2, Breakpoint cluster region 1 protein (BCR1) (human) (UniProt P11274); experiment: Y2H; INT ID 165
T2 sequence (looked up): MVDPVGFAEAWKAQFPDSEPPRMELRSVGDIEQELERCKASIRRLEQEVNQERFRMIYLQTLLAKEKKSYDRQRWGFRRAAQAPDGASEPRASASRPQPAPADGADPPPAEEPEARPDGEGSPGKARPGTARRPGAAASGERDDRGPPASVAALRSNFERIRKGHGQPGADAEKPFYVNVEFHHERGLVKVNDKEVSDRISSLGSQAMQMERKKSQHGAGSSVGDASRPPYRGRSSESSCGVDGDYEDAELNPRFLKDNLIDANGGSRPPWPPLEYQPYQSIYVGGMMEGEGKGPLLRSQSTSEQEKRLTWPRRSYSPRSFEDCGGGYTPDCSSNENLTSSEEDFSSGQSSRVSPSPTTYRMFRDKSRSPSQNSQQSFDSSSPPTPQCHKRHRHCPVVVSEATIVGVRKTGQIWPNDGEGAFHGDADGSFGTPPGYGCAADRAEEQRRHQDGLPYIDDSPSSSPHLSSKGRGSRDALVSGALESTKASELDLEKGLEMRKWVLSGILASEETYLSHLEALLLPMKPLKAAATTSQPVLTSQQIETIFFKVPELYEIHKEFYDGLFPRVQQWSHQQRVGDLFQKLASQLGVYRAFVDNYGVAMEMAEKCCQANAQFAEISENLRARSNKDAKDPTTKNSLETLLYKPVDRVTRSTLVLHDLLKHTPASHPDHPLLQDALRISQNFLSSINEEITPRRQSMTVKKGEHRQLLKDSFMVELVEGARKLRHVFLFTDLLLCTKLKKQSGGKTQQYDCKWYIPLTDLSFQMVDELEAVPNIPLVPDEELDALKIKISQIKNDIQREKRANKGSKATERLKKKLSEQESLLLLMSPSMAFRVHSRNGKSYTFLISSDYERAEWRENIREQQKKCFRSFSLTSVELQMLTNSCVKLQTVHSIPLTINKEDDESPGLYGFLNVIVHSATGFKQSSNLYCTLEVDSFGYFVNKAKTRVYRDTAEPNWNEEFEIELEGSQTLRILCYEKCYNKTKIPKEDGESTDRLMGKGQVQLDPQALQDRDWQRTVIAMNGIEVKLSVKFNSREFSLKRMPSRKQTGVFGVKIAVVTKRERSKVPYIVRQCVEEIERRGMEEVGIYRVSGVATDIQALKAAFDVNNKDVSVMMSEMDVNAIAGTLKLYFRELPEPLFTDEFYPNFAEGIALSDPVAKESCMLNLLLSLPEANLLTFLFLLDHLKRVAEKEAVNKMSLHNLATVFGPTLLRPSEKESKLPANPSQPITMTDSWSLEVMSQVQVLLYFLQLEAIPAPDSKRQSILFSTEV

[4] = molecular target: Prey1620 (Homo sapiens (Human)) (UniProt Q9BQA5); experiment: Y2H; INT ID 167
[5] = molecular target: T3, MIZF (human) (UniProt Q9BQA5); experiment: Y2H; INT ID 177
T3 sequence: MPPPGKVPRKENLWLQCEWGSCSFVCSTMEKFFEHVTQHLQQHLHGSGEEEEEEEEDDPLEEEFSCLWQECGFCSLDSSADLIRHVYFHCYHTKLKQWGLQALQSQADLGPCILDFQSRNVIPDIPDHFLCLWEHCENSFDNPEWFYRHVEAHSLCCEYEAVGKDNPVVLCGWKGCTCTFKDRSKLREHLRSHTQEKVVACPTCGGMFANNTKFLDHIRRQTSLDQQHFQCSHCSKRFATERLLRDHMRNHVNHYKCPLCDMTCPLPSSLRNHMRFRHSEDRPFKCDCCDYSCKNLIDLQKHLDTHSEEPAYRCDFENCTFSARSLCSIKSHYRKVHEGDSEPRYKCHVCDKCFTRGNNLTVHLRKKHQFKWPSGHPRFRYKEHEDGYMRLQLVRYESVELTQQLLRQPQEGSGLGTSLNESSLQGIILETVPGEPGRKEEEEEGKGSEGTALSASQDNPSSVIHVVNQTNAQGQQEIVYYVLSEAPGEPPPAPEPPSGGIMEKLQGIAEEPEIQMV

[6] = molecular target: T4, ZNF-U69274 (human) (UniProt O95625); experiment: Y2H; INT ID 178
T4 sequence: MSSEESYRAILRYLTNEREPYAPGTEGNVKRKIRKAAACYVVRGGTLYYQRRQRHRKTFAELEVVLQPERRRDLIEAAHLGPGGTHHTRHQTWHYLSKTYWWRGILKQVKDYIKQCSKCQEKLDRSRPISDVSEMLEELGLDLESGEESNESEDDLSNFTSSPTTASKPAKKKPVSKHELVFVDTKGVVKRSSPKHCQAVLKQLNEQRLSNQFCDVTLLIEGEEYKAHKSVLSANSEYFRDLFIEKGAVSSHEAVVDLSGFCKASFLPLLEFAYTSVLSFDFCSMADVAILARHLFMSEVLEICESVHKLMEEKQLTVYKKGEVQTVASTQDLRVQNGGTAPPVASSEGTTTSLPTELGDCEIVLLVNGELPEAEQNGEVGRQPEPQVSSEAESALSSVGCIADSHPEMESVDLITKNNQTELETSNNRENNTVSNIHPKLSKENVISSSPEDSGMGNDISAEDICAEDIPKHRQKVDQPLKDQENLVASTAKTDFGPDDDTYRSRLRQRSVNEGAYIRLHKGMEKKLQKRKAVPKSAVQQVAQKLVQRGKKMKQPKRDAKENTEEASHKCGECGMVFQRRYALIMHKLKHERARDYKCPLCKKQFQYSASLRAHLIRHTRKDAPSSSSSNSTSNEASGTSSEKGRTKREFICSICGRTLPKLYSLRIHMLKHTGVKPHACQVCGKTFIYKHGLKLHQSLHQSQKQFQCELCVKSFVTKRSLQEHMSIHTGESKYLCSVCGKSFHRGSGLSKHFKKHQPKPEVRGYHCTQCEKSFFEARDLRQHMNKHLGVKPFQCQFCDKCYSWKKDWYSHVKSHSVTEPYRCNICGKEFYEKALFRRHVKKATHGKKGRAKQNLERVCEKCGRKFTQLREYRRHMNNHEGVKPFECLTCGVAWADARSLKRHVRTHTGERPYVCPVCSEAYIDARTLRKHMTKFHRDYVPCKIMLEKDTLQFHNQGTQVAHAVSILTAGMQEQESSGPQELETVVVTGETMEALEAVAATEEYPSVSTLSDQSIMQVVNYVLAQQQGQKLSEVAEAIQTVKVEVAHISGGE

[7] = molecular target: T5, SBP2 (human) (UniProt Q96T21); experiment: Y2H; INT ID 180
T5 sequence: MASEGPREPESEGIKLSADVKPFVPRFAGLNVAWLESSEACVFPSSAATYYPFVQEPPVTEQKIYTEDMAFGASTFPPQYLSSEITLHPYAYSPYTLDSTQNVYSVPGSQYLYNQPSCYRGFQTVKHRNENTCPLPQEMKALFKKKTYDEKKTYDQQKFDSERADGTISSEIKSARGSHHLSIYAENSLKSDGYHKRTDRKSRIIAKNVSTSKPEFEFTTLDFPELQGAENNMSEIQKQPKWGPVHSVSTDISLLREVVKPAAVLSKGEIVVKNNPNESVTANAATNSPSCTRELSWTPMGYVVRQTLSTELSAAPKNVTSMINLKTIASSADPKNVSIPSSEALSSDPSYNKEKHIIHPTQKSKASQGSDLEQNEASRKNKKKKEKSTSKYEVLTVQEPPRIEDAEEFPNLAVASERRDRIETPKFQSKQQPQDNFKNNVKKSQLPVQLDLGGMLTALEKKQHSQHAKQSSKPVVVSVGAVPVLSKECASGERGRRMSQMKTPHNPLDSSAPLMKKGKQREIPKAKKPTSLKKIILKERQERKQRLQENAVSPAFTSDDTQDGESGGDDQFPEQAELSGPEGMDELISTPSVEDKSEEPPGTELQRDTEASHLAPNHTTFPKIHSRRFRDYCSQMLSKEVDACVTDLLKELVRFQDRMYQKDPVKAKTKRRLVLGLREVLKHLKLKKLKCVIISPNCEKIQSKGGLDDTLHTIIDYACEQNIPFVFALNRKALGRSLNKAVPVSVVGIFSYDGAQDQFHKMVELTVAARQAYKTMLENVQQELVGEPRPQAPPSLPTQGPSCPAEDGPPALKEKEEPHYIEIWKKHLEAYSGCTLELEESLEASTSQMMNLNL

[8] = molecular target: MRG15 (human) (UniProt Q9UBU8); experiment: Y2H; INT ID 15
[9] = molecular target: Prey142356 (human); experiment: Y2H; INT ID 413
[10] = molecular target: Prey1053092; experiment: Y2H; INT ID 145
[11] = molecular target: gbh_ac004503 (human) (UniProt Q15582); experiment: Y2H; INT ID 428
[12] = molecular target: gbh_d38112_5 (human); experiment: Y2H; INT ID 159
[13] = molecular target: T1, LOC51182 (human); experiment: Y2H; INT ID 162
[14] = molecular target: TCP-1 (UniProt P17987); experiment: Y2H (told in text)
[15] = molecular target: BSMAP (human) (UniProt Q9UK28); experiment: Y2H; INT ID 149
[16] = molecular target: T3, MIZF (human); experiment: Y2H; INT ID 190
[17] = molecular target: T6, Human papillomavirus 11 E4 (Human papillomavirus 11) (UniProt P20969); experiment: Y2H; INT ID 2
T6 sequence: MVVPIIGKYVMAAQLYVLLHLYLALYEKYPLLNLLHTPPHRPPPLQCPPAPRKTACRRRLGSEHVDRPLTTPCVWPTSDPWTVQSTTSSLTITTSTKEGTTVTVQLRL

Substance: Human Papillomavirus 1a E1 (from UniProt P03111 1-612)
- binding [1]: binds

Substance: Human papillomavirus 16 E7 (from UniProt P03129 1-98)
- binding [2]: binds
- binding [3]: binds
- binding [4]: binds
- binding [5]: binds
- binding [6]: binds
- binding [7]: binds

Substance: Human papillomavirus 11 E2 (from UniProt P04015 1-367)
- binding [8]: binds

Substance: Human Papillomavirus 1a E2 (from UniProt P03118 1-401)
- binding [9]: binds

Substance: Human papillomavirus 16 E1 (from UniProt P03114 1-649)
- binding [10]: binds

Substance: Human Papillomavirus 1a E7 (from UniProt P06465 1-93)
- binding [11]: binds

Substance: Human papillomavirus 16 E6 (from UniProt P03126 1-158)
- binding [12]: binds
- binding [13]: binds
- binding [14]: binds

Substance: Human papillomavirus 16 E2 (from UniProt P03120 1-365)
- binding [15]: binds

Substance: Human papillomavirus 16 L2 (from UniProt P03107 1-473)
- binding [16]: binds

Substance: deoxyguanosine kinase (from UniProt Q16854 40-277) (enzyme)
- binding [17]: binds
